Test results reported in PubChem BioAssay AID1671190 (National Center for Advancing Translational Sciences (NCATS), 2021).
About 6,100 (1.1%) of roughly 580,000 compounds were called active. This list was built around the results that the source calls inconclusive (neither active nor inactive); the mix of calls is not that of the screen. Calls follow the shape of the dose curve; as a rule, active = well fitted inhibition curve with a large enough effect; inconclusive = small, poorly fitted or top-dose-only effect, or another doubt; inactive = no such curve, though single readings can be large or run the other way. A potency beside an inconclusive call is a rough fit, not a confirmed value.

Chains of the proteins cited; added tags and fusions are not shown.
UniProt P18054, whole entry, looked up: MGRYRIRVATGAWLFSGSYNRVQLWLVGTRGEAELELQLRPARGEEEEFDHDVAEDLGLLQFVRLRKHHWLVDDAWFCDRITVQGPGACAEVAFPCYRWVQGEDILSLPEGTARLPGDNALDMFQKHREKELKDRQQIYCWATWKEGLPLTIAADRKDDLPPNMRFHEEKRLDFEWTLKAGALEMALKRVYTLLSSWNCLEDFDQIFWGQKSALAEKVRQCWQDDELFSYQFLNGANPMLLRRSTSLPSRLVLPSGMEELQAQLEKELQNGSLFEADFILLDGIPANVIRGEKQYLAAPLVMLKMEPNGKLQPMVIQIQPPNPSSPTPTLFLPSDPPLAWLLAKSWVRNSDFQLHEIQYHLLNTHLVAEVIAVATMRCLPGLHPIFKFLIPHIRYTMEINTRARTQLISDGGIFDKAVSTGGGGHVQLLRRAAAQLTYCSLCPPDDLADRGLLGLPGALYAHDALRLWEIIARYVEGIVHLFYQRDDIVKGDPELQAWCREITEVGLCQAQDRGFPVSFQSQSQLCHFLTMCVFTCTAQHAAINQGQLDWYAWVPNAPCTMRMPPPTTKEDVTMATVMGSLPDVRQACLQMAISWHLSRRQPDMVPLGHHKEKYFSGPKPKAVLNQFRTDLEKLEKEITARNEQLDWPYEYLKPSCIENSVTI

The compounds below were run against Polyunsaturated fatty acid lipoxygenase ALOX12 (Homo sapiens) (UniProt P18054) (assay: Primary qHTS assay for inhibitors of human arachidonate 12S-lipoxygenase (ALOX12): Round 2). Details: purified 12hLO, xylenol orange hydroperoxide absorbance; activity change, negative = inhibition: at 108 µM (top of the series) unless noted.
Summary of the method: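 Purified human 12hLO at 150 nM in 25 mM Hepes, 0.01% Triton X-100, pH 7.0, preincubated 15 min at room temperature with compound. Reaction started with 40 uM arachidonic acid, 30 min at room temperature. Hydroperoxide measured by Fe-xylenol orange, 573/405 nm absorbance ratio.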
% is scaled to controls: 0 for no effect and ±100 for the full control effect; potency is read from the fitted curve at half-maximal effect.

Compound | Potency | activity change, negative = inhibition
CCNC(=O)N[C@H]1[C@H](O)[C@@H](N2CCOCC2)[C@@H]2OC[C@H]1O2 | inconclusive: 25.1 µM [inhibitor, full curve, poor fit] | –
CCOc1cc(/C=C(/C#N)c2ccccn2)ccc1OCC(F)(F)F | inconclusive: 31.6 µM [inhibitor, partial curve, poor fit] | –
Cc1ccc(CSc2cn(CCNC(=O)c3cccs3)c3ccccc23)cc1 | inactive | –
O=C(Cn1c(SCC(=O)Nc2ccc(F)cc2)nc2ccccc21)NCc1ccc(Cl)cc1 | inactive | –
O=C(NC1CC1)c1cccc(NC(=O)C2CCC2)c1 | inactive | –
COc1nc2c(cc1CNC(=O)CC1CC1)C(=O)N(CCc1ccccn1)C2 | inactive | –
O=C(O)CN1C(=O)/C(=C\c2cc(Br)ccc2OCc2ccc(F)cc2)SC1=S | active: 2.51 µM | –
O=[N+]([O-])c1ccc(/C=N/NC(=S)Nc2ccccc2)cc1 | inconclusive: 44.7 µM [inhibitor, partial curve, poor fit] | –
COC(=O)Cn1c(C)nc2ccccc21 | inactive | –
CN(C)C(=O)c1coc2nc3ccccc3nc12 | inconclusive: 28.2 µM [inhibitor, partial curve, poor fit] | –
CC1CC(C)(C)CC2(C1)NC(=O)N(CC(=O)N1CCN(S(=O)(=O)c3ccc(F)c(F)c3F)CC1)C2=O (centres undefined) | inconclusive: 79.4 µM [inhibitor, partial curve, poor fit] | –
CNC(=S)SCCOc1ccc(C)cc1 | inconclusive: 50.1 µM [inhibitor, partial curve, poor fit] | –
CN(CC(=O)Nc1ccccc1C(F)(F)F)Cc1c(O)ccc2ccccc12 | active: 7.08 µM | –
Cc1nn(Cc2c(F)c(F)c(F)c(F)c2F)c(C)c1NC(=O)c1ccc(COc2ccc(Cl)cc2Cl)o1 | inactive | –
CC(=O)N(C)c1ccc(N=NC2C(=O)N(C(N)=S)N=C2C)cc1 (centres undefined) | inconclusive: 50.1 µM [inhibitor, partial curve, poor fit] | –
COc1ccc(CNC(=O)CC[C@H]2CNC(=O)[C@@H]3[C@@H](CCN3Cc3ccc(OC)cc3)N2C)cc1 | inactive | –
O=C(CN1CCCCCC1)NC(c1ccccc1)c1ccccc1 | inconclusive: 2.82 µM [inhibitor, full curve, poor fit] | –
CC1(OC(=O)C2CCCC2)C(=O)C=C2C=C(c3ccsc3)N(c3ccccc3)C=C2C1=O (centres undefined) | active: 12.6 µM | –
CC(=O)CCc1ccc(O)cc1 | inactive | –
O=C(Cn1ncc2c3ccccc3n(Cc3cccc(Cl)c3)c2c1=O)NCCC1=CCCCC1 | inconclusive: 44.7 µM [inhibitor, partial curve, poor fit] | –
Cc1ccccc1Cn1c(=O)n(CCCCCC(=O)NCc2ccc3c(c2)OCO3)c(=O)c2sccc21 | inactive | –
CC(=O)Nc1nc(=S)n(-c2ccccc2)[nH]1 | inconclusive: 31.6 µM [inhibitor, full curve, poor fit] | –
O=C(Cn1ncc(Cl)c(Cl)c1=O)Nc1ccc2c(c1)OCO2 | inactive | –

Compound | Potency | activity change, negative = inhibition
CCOc1cc(C)c(CN2CCC3(C2)CN(C)C(=O)O3)cc1C(C)C (centres undefined) | inactive | –
CCC(C)(C)n1nnnc1C(c1cc(OC)ccc1OC)N1CCN(Cc2ccccc2)CC1 (centres undefined) | inconclusive: 0.251 µM [inhibitor, full curve, poor fit] | –
CCN(CC)c1ccc(CNS(=O)(=O)c2cc3c(cc2C)NC(=O)CO3)cc1 | inconclusive: 50.1 µM [inhibitor, partial curve, poor fit] | –
COc1cccc(C(=O)NN2CC(O)=C(c3nc(-c4ccc(Br)cc4)cs3)C2=N)c1 | inconclusive: 50.1 µM [inhibitor, single point] | –
Cc1cc2oc(=O)cc(CN3CCN(c4ccccc4)CC3)c2cc1Cl | inconclusive: 50.1 µM [inhibitor, partial curve, poor fit] | –
COCCn1c(-c2ccco2)nc2nc3ccccc3nc21 | inconclusive: 56.2 µM [inhibitor, partial curve, poor fit] | –
COc1ccccc1NC(=O)N1CCC(Oc2ncccc2C(=O)N2CCOCC2)C1 (centres undefined) | inactive | –
COCc1cn(C[C@H]2C[C@@H](NC(=O)c3ccccc3)[C@H](O)[C@@H]2O)nn1 | inconclusive: 39.8 µM [inhibitor, full curve, poor fit] | –
COc1ccc(NC(=O)CSc2ncc3c(n2)-c2ccccc2N(C)S3(=O)=O)cc1Cl | – | inconclusive: -30.7% [inhibitor]
COc1ccc(Cc2nc3ccc(C(=O)NC4CCOC4)cc3o2)cc1OC (centres undefined) | inactive | –
CCC1CCCCN1C(=O)NC(=O)c1ccccc1 (centres undefined) | inactive | –
C[C@@H](NC(=O)NC1CCCCC1)c1onc(-c2cccnc2)c1C(=O)O | inconclusive: 56.2 µM [inhibitor, full curve] | –
O=C(/C=C/c1ccco1)NC(=S)Nc1cc(-c2nc3ccccc3s2)ccc1Cl | inconclusive: 50.1 µM [inhibitor, partial curve, poor fit] | –
CCOC(=O)Cc1csc(NC(=O)c2sc3nc4c(C)cc(C)cc4cc3c2N)n1 | inconclusive: 20 µM [inhibitor, partial curve] | –
Cc1ccc(Cn2cccc2/C=N/NC(=S)Nc2ccc(C)cc2)cc1 | active: 44.7 µM | –
COc1cc(C2SCCS2)ccc1OC(=O)c1ccc2ncsc2c1 | inactive | –
COC(=O)c1ccccc1NC(=S)N(Cc1ccc2c(c1)OCO2)Cc1cc2cccc(C)c2[nH]c1=O | inactive | –
Cc1ccc(-c2cc(C(=O)NC(C)C(=O)N(C)C)c3ccccc3n2)o1 (centres undefined) | inconclusive: 44.7 µM [inhibitor, partial curve, poor fit] | –
CCOC(=O)N1CCC(c2nnc(CN3CCCCCC3)n2C)CC1 | inconclusive: 70.8 µM [inhibitor, partial curve, poor fit] | –
O=C(Nc1cccc([N+](=O)[O-])c1)c1ccc2c(c1)OCO2 | inconclusive: 2.82 µM [inhibitor, full curve, poor fit] | –
Cc1cc(C)c(C)c(S(=O)(=O)N2C(=S)NC(=O)C2C(C)C)c1C (centres undefined) | inconclusive: 89.1 µM [inhibitor, partial curve, poor fit] | –
COc1ccc(N2CCCCS2(=O)=O)cc1S(=O)(=O)N1CCCc2ccccc21 | inactive | –
COC(=O)C1=C(CN2CCSCC2)NC(=O)NC1c1cc(C)ccc1C (centres undefined) | inconclusive: 39.8 µM [inhibitor, partial curve, poor fit] | –

Compound | Potency | activity change, negative = inhibition
Cc1csc2nc(CSc3ccc(Cl)cc3)c(Br)n12 | inconclusive: 50.1 µM [inhibitor, partial curve, poor fit] | –
Cc1ccc2nc(SCC(=O)NCCc3ccccc3)nc(=O)n2c1 | inconclusive: 44.7 µM [inhibitor, full curve, poor fit] | –
CC(C)c1ccc(NC(=O)CSc2nc(=O)n(CCCN3CCOCC3)c3c2CCC3)cc1 | inconclusive: 39.8 µM [inhibitor, full curve, poor fit] | –
Cc1ccc(S(=O)(=O)C(CNC(=O)c2ccc(C(F)(F)F)cc2)c2ccco2)cc1 (centres undefined) | inconclusive: 50.1 µM [inhibitor, partial curve, poor fit] | –
COC(=O)C1(C)COP(=O)(NC23CC4CC(CC(C4)C2)C3)OC1 (centres undefined) | inactive | –
O=C(NC1(c2ccccc2)CCC1)c1cc(=O)[nH]c2ccccc12 | active: 11.2 µM | –
CCC(CC)C(=O)Nc1cc(OC)c(OC)cc1C(=O)O | inactive | –
CCOc1cc(/C=C2\C(=O)ON=C2C)ccc1OCc1ccccc1 | inconclusive: 7.94 µM [inhibitor, full curve] | –
COc1ccc(OCc2nc(N)nc(Nc3ccccc3OC)n2)cc1 | inactive | –
NC(CO)c1cccc2ccccc12 (centres undefined) | inactive | –
O=C1CNc2ccc(C(=O)NCc3cc4n(n3)CCCNC4)cc2N1 | inconclusive: 15.8 µM [inhibitor, full curve, poor fit] | –
Cc1cc(C(=O)N2CCOC[C@H](Oc3cccnc3)C2)c(C(F)(F)F)o1 | inactive | –
COc1ccc(C(=O)Nc2c3c(nn2C(C)(C)C)CS(=O)(=O)C3)cc1OC | inactive | –
Cc1ccc(C(=O)CNc2ccc(F)cc2)cc1 | inconclusive: 35.5 µM [inhibitor, partial curve, poor fit] | –
COc1ccccc1CCC(=O)N1CCN(S(=O)(=O)c2cc(C(F)(F)F)ccc2Cl)CC1 | inconclusive: 25.1 µM [inhibitor, partial curve, poor fit] | –
COc1ccc(/C=N/N=C2/NC(=O)C(c3ccccc3)S2)c(OC)c1 (centres undefined) | inactive | –
CCCCNC(=O)c1onc(CSc2cccc(F)c2)c1C(=O)O | inconclusive: 11.2 µM [inhibitor, full curve, poor fit] | –
CN(C)CCCNC(=O)C[C@H]1C[C@H](C(=O)N2CCCCC2)[C@@]2(C)c3[nH]c4ccc(Cl)cc4c3CCN2C1=O | inactive | –
Cc1ccc(S(=O)(=O)CC(=O)N(CCCN(C)C)c2nc3ccc(C)cc3s2)cc1 | inconclusive: 100 µM [inhibitor, single point] | –
CC(C)(C)C(=O)Nc1ccc(-c2csc(NCc3ccco3)n2)cc1 | inconclusive: 8.91 µM [inhibitor, full curve] | –
O=C1NN(c2ccccc2)C(=O)/C1=C/c1coc2ccccc2c1=O | inconclusive: 50.1 µM [inhibitor, partial curve, poor fit] | –
Cc1ccc(-n2nc(-c3c(C)nc4scc(CC(=O)NCc5ccccc5)n4c3=O)cc2C)cc1 | inactive | –
Cc1cnc(C(=O)N[C@@H]2CCC[C@@H]2C(=O)NCCN2CCOCC2)cn1 | inconclusive: 15.8 µM [inhibitor, partial curve, poor fit] | –

Grouped by structure: the entries above containing an aryl thioether with sulfur outside any ring
Compound | Potency | activity change, negative = inhibition
Cc1ccc(CSc2cn(CCNC(=O)c3cccs3)c3ccccc23)cc1 | inactive | –
O=C(Cn1c(SCC(=O)Nc2ccc(F)cc2)nc2ccccc21)NCc1ccc(Cl)cc1 | inactive | –
COc1ccc(NC(=O)CSc2ncc3c(n2)-c2ccccc2N(C)S3(=O)=O)cc1Cl | – | inconclusive: -30.7% [inhibitor]
Cc1csc2nc(CSc3ccc(Cl)cc3)c(Br)n12 | inconclusive: 50.1 µM [inhibitor, partial curve, poor fit] | –
Cc1ccc2nc(SCC(=O)NCCc3ccccc3)nc(=O)n2c1 | inconclusive: 44.7 µM [inhibitor, full curve, poor fit] | –
CC(C)c1ccc(NC(=O)CSc2nc(=O)n(CCCN3CCOCC3)c3c2CCC3)cc1 | inconclusive: 39.8 µM [inhibitor, full curve, poor fit] | –
CCCCNC(=O)c1onc(CSc2cccc(F)c2)c1C(=O)O | inconclusive: 11.2 µM [inhibitor, full curve, poor fit] | –

Three compounds out of the list, ordered by molecular weight, rising.
Compound | Potency | activity change, negative = inhibition
COC(=O)Cn1c(C)nc2ccccc21 | inactive | –
CCOc1cc(/C=C2\C(=O)ON=C2C)ccc1OCc1ccccc1 | inconclusive: 7.94 µM [inhibitor, full curve] | –
COc1ccc(Cc2nc3ccc(C(=O)NC4CCOC4)cc3o2)cc1OC (centres undefined) | inactive | –
